Measurements reported in paper PMC9938216.
Results are given in words; binding and its absence hold for the method and conditions named. Binding seen in cells or lysates may run through a third protein. Some binding calls cover weakened binding; strength is not graded here. Tags and fused reporters may be left off the sequences shown.

Protein sequences, listed by entry. Tags and fused reporters are not part of them.
UniProt P63044: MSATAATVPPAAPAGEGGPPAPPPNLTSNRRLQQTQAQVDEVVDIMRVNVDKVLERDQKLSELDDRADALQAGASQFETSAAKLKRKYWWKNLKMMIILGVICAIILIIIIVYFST

Target: T1, FLAG-Prrt2 (UniProt E9PUL5)
T1 sequence: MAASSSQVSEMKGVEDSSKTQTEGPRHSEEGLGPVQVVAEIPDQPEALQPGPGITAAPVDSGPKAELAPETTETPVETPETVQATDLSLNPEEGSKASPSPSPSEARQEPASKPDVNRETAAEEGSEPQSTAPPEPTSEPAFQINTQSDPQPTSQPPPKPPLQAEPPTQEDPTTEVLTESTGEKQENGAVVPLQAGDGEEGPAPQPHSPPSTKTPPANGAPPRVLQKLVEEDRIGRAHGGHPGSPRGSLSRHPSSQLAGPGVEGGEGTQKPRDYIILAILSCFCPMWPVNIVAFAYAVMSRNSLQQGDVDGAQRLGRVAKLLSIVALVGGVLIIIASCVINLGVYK
Experiment: co-IP; HEK293T cells transfected with FLAG-Prrt2 and T7-VAMP2 or myc-STX1A; IP with anti-FLAG antibody or mouse IgG in 50 mM Tris pH 7.4, 150 mM NaCl, 1% Triton X-100; western blotting

For T7-VAMP2 (from UniProt P63044 1-116), the binding was “binds”.
